From PMC10163288
The other results are listed elsewhere or left out.

B1: il10ra_site1_sap_15_mot_HHH_b1_01467_000000089_0001_1_18_H_._HHH_b1_05739_0001_0000300043_0000001_0_0001 (protein)
chain: SSSSNLEEYVKLALRFARHLAKHNPEAARALLEAMLEIVKKHGNEELAKEIEKLIEELESSSSSS
B2: il10ra_site1_sap_14_mot_ems_3hM_3637_000000290_0001_1_19_H_._HHH_b1_03012_0001_0000200018_0000001_0_0001 (protein)
chain: SSSSSEAERSAEFLLRAAREARKNGNEEYARLALRFAIHLARWAGNEELLEELEKLLEELGSSSS
B3: il10ra_site1_sap_26_mot_HHH_b2_03425_000000200_0001_22_39_H_._HHH_b1_08385_0001_0000100007_0000002_0_0001 (protein)
chain: SSSSSEELKELLEELEELAEEGDERQFAQLAAKIMRLIYELGDEEAAEELLRIAAKFLNRSSSSS
B4: il10ra_site1_normal_mot_HHH_b1_00999_000000080_0001_41_55_H_._HHH_b1_01870_0001_0000600018_0000001_0 (protein)
chain: SSSSSSSEEEVEELLEEAKEIDDPREAARVLQEATHIALRNQNPELLRLVWEVVKRLGSSSSSSS
B5: il10ra_site1_sap_17_mot_HHH_b1_06789_af2_000000041_0001_1_20_H_._HHH_b1_04606_0001_0000200023_0000001_0_0001 (protein)
chain: SSSSDLEEIVEEAKREAEELAERGNPREAAWVLFRAIHEALENNDQEASHELWKLMMELARSSSS
B6: il10ra_site1_normal_mot_HHH_b2_00441_000000147_0001_1_18_H_._HHH_b2_02785_af2_0001_0000500023_0000002_0_af2pred_0001 (protein)
chain: SSSSDDEERSIRKWFKLARRAIELGDEELVKRAIELLEQLAKRLNDEEAEELVKELKELLESSSS
B7: il10ra_site1_sap_19_mot_HHH_b2_03220_af2_000000223_0001_23_40_H_._HHH_b1_07213_0001_0000100001_0000001_0_0001 (protein)
chain: SSSSDEEQEELLRLLRKLVELLLRGDKEEAERLARELLELAEELNDEKVVHVVEDLEKTVSSSSS
B8: il10ra_site1_sap_19_mot_HHH_b2_03220_af2_000000223_0001_23_40_H_._HHH_b1_04502_af2_0001_0000300009_0000002_0_0001 (protein)
chain: SSSSSDQELLRLLLEAFRLLLRGNPEEAKEVLEQAREIAKEAGDERALRMAEDLLAVIEGSSSSS
B9: il10ra_site1_sap_21_mot_HHH_b2_02694_000000228_0001_1_18_H_._HHH_b2_03245_af2_0001_0000400023_0000001_0_0001 (protein)
chain: SSSSDEEQRVVELILRVVRLRANGNPEEAEEVLKEAKELAEELGDEELRRYVEIVERFVRSSSSS
B10: il10ra_site1_normal_mot_HHH_b2_07569_000000265_0001_38_56_H_._HHH_b2_04128_af2_0001_0000500024_0000002_0 (protein)
chain: SSSSSDIAEIAQEALRLAIRLGDQETVQEIWELVKRYFEKGDPEIEEALEELLEELEKRGSSSSS
B11: il10ra_site1_sap_27_mot_HHH_b1_01821_000000158_0001_23_39_H_._HHH_b1_07193_af2_0001_0000400018_0000001_0_0001 (protein)
chain: SSSSDEERSRAAQIAIRVYALAHQLGDEEAARRVARLLAEYIAKGDPEYLEQIEEIEERLRSSSS
B12: il10ra_site1_normal_mot_7f9b3cf633cfd27bca007b62ade1be3b_0001_1_000000138_0001_17_32_H_._HHH_b1_05277_0001_0000100013_0000001_1 (protein)
chain: SSSSSSSSEETLRFLIFALERAETEEQRRAALLFLEHLAEELNDEEAEEVVEEFKRRHSSSSSSS
B13: il10ra_site1_sap_27_mot_HHH_b2_01776_000000118_0001_38_52_H_._HHH_b2_02060_0001_0000100005_0000001_0_0001 (protein)
chain: SSSSSDEEAEELYELSREALRIDDPEEAEEVVEEAFELAEKAGNRVLLKNIEYLLRDLRSSSSSS
B14: il10ra_site1_normal_mot_HHH_b1_06789_af2_000000041_0001_1_20_H_._HHH_b2_03285_0001_0001000073_0000002_0 (protein)
chain: SSSSTAEFLVRQALKAAKLALEAGDPEYAERALQIARLSAEQANNPELEELVREVEEELRKSSSS
B15: il10ra_site1_normal_mot_HHH_b2_07784_af2_000000103_0001_19_36_H_._HHH_b2_01656_af2_0001_0000100001_0000002_0 (protein)
chain: SSSSNEWYREVKELIEEAVKALRNGDEELLEELLKRLEELAEEFNTPSVEFAVRLLEQARGSSSS
B16: il10ra_site1_sap_12_mot_HHH_b1_06348_000000162_0001_1_15_H_._HHH_b2_03914_0001_0000100003_0000001_0_0001 (protein)
chain: SSSSDEAEEEAERLLEEAKEIDDPEEFMRLIMEALHLALRGGDEELFQEIWRVVKEWAKKSSSSS
B17: il10ra_site1_normal_mot_HHH_b2_04275_000000272_0001_20_36_H_._HHH_b1_03935_0001_0000100004_0000001_1 (protein)
chain: SSSSDEESQELYELSREVAELEHEGDEEEAEELLEEAIKLAQELGNFAFLVQLEYLLRLLSSSSS
B18: il10ra_site1_normal_mot_HHH_b2_00277_af2_000000172_0001_1_17_H_._HHH_b2_05434_0001_0000100004_0000001_0_af2pred_0001 (protein)
chain: SSSSDREEVERLLEEAKELAERGNPEEASYLLVRAFAIATKNNNEELKELVKEVAQEVAHSSSSS
B19: il10ra_site1_sap_21_mot_HHH_b1_06789_af2_000000041_0001_1_20_H_._HHH_b2_02564_0001_0000200010_0000001_0_0001_af2pred_0001 (protein)
chain: SSSSSEEAEEATELLREAVELARNGNPEEAEEVLREAEELAREANSLVLRVIIEFLLKRLSSSSS
B20: il10ra_site1_normal_mot_8756ee2cf497b5429c717dfc0c0bcfd6_0001_000000186_0001_1_13_H_._HHH_b1_01781_af2_0001_0000400022_0000001_0_af2pred_0001 (protein)
chain: SSSSSEEAQELVRLIREAIRLLNEGNPEEAEEVAREAEELAREGNNLNLLAQIEFLLRRIESSSS
B21: il10ra_site1_normal_mot_HHH_b1_06994_000000193_0001_40_55_H_._HHH_b2_01485_0001_0000400029_0000001_0 (protein)
chain: SSSSNEEELLEAVKRLIEQAIKNGDPRSARFLVEALEILARLNNDPEAEEEAERLEEEVKKSSSS
B22: il10ra_site1_normal_mot_HHH_b2_00475_000000107_0001_44_57_H_._HHH_b1_04904_0002_0000100004_0000002_0 (protein)
chain: SSSSDIIEVMYRLTRAVAEGDEEEIRELLEELEELLKKADEELEKYIEILLHFARSQLENASSSS
B23: il10ra_site1_sap_32_mot_HHH_b2_06311_000000217_0001_1_16_H_._HHH_b1_07065_0001_0000100002_0000001_1_0001_af2pred_0001 (protein)
chain: SSSSSREEEAIRLTLRFAEFLAEEGNPELAREFLEFAKELAEKTNDEEAEEEIKEVEERLSSSSS
B24: il10ra_site1_sap_24_mot_HHH_b1_01513_af2_000000021_0001_1_16_H_._HHH_b2_03132_0001_0000300007_0000001_0_0001 (protein)
chain: SSSSSDIEERVEELIEELEELLKNGDPERASHVAVEALRLIYRLGDAELLRELWELFASLSSSSS

molecular target: il10ra, Q13651; experiment: yeast display titration

Apparent Kd, inactive:
B1 no binding seen
B2 no binding seen
B3 no binding seen
B4 no binding seen
B5 no binding seen
B6 no binding seen
B7 no binding seen
B8 no binding seen
B9 no binding seen
B10 no binding seen
B11 no binding seen
B12 no binding seen
B13 no binding seen
B14 no binding seen
B15 no binding seen
B16 no binding seen
B17 no binding seen
B18 no binding seen
B19 no binding seen
B20 no binding seen
B21 no binding seen
B22 no binding seen
B23 no binding seen
B24 no binding seen

As a short view, part of the list above.
Apparent Kd, inactive:
B17 no binding seen
B18 no binding seen
B19 no binding seen
B20 no binding seen
B21 no binding seen
B22 no binding seen
B23 no binding seen
